In the test the target is checkpoint kinase Chk2 (human (endogenous in HEK293)) (UniProt O96017). The test can be described thus: co-IP; HEK293 cells, IP with a Chk2 antibody, immunoblot for Ape1 and Chk2; cells asynchronous/untreated or treated with BSA (0.5%, 24 h), double thymidine (2 mM), hydroxyurea (2 mM, 16 h), MMS (250 uM, 4 h, then washed and incubated further), temozolomide (4 h, then 4 h more) or ionizing radiation (3 Gy, harvested after 6 h).

Protein sequences, listed by entry. Tags and fused reporters are not part of them.
UniProt O96017: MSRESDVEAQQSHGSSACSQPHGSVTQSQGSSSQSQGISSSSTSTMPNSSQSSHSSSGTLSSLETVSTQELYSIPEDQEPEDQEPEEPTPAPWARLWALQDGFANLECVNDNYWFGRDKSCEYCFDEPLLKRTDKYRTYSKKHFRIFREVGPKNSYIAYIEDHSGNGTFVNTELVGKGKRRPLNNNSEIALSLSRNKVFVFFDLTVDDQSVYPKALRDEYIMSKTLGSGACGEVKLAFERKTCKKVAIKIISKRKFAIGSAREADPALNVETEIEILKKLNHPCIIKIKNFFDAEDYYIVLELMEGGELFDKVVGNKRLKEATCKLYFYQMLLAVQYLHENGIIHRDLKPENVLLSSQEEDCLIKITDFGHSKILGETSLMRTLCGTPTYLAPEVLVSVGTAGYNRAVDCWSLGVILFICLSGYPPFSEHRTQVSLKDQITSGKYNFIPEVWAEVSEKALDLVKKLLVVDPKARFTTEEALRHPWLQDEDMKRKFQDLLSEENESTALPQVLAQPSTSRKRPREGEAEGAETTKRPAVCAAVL
UniProt P27695: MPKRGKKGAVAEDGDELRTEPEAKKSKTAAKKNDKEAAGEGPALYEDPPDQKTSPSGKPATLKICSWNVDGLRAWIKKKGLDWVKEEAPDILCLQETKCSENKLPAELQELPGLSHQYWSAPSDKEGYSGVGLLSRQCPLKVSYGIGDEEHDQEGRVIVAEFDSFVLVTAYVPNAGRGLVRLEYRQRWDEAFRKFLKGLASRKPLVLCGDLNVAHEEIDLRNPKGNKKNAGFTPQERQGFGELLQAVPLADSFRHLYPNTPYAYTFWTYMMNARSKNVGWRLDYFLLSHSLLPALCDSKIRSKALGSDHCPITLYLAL

No constants are given. Whether binding was seen depends on the method and setting. In cells and extracts the contact can be indirect. Some results given as binding are weak or reduced against the parent protein; the word gives no strength.

Regarding “AP endonuclease 1, Ape1 (from UniProt P27695 1-318)”, the binding result is “binds”.

The record behind these values is article PMC5574897.
